# Measurements from PubChem BioAssay AID1671190 (National Center for Advancing Translational Sciences (NCATS), 2021).
# Amino acid sequences for entries named in this document (tags omitted). A change or cut given only in a name is not applied to a line headed by its entry.
# UniProt P18054: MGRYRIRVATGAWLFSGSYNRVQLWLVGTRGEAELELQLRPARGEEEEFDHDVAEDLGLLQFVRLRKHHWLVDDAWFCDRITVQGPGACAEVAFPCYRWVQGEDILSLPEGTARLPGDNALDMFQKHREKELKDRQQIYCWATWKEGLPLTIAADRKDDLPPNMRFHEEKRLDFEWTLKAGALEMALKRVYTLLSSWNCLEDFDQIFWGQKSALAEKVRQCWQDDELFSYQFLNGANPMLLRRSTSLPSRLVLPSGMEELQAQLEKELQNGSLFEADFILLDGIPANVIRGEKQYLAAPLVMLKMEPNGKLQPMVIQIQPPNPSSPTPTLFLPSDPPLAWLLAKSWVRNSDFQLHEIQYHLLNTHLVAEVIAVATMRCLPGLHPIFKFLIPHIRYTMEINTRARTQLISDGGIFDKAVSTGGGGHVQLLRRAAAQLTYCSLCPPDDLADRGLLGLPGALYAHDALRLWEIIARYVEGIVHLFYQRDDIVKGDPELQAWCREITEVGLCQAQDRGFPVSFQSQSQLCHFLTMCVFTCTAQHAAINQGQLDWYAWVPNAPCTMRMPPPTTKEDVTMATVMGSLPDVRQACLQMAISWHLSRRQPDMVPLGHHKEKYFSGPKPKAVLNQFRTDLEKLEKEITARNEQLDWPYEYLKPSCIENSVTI
# Among all 580,000 compounds or so, about 6,100 (1.1%) were called active. Inconclusive means that the source gave no clear call. Such entries were picked first, then a sample of the others. Calls follow the shape of the dose curve; as a rule, active = well fitted inhibition curve with a large enough effect; inconclusive = small, poorly fitted or top-dose-only effect, or another doubt; inactive = no such curve, though single readings can be large or run the other way. Potencies beside an inconclusive call are fits to weak or partial responses and may not hold up.
# Biological target: Polyunsaturated fatty acid lipoxygenase ALOX12 (Homo sapiens) (UniProt P18054)
# Experiment: Primary qHTS assay for inhibitors of human arachidonate 12S-lipoxygenase (ALOX12): Round 2
# Conditions: purified 12hLO, xylenol orange hydroperoxide absorbance; activity change, negative = inhibition: at 108 µM (top of the series) unless noted
# Procedure, shortened: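 Purified human 12hLO at 150 nM in 25 mM Hepes, 0.01% Triton X-100, pH 7.0, preincubated 15 min at room temperature with compound. Reaction started with 40 uM arachidonic acid, 30 min at room temperature. Hydroperoxide measured by Fe-xylenol orange, 573/405 nm absorbance ratio.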
# % is scaled to controls: 0 for no effect and ±100 for the full control effect; potency is read from the fitted curve at half-maximal effect.
SMILES,Potency,"activity change, negative = inhibition"
COc1ccc(NC(=O)COc2ccccc2Cl)cc1S(=O)(=O)N1CCCCC1,"inconclusive: 56.2 µM [inhibitor, partial curve, poor fit]",
CN(C)Cc1cn(CC[C@@H]2CC[C@@H](NC(=O)Nc3ccccc3F)[C@@H](CO)O2)nn1,"inconclusive: 28.2 µM [inhibitor, partial curve, poor fit]",
CCOC(=O)C1CCCN(CCC(=O)Nc2cccc(Cl)c2C)C1 (stereo not drawn),"inconclusive: 28.2 µM [inhibitor, single point]",
CC(NC(=O)c1ccccc1)C(=O)O (stereo not drawn),"inconclusive: 31.6 µM [inhibitor, single point]",
COc1ccccc1N1CCN(C2C(=O)Nc3ccccc3-n3nnnc32)CC1 (stereo not drawn),"inconclusive: 141 µM [inhibitor, single point]",
CCOC(=O)C1=CN(c2ccc(C)cc2)C=C(C(=O)OCC)C1c1cccc(OCC)c1,"inconclusive: 100 µM [inhibitor, single point]",
C/C=C/Cn1c(N2CCCCC2)nc2c1c(=O)[nH]c(=O)n2C,"inconclusive: 56.2 µM [inhibitor, single point]",
O=C(CCC[C@H]1NC[C@@H]2CC1CN(Cc1ccccc1)C2)NCCCc1ccccc1,"inconclusive: 14.1 µM [inhibitor, full curve]",
CCOC(=O)N1CCN(C(=O)c2cc(COc3ccc(F)cc3F)on2)CC1,inactive,
CCc1nc2c(c(-c3ccc(O)cc3)n1)CN(Cc1ccc(C(F)(F)F)cc1)CC2,"inconclusive: 100 µM [inhibitor, single point]",
O=C(COc1ccc(F)cc1)Nc1ccc(S(=O)(=O)Nc2ncccn2)cc1,"inconclusive: 56.2 µM [inhibitor, partial curve]",
O=C(COC(=O)c1cnccn1)c1ccc(Cl)c([N+](=O)[O-])c1,"inconclusive: 17.8 µM [inhibitor, partial curve, poor fit]",
Cc1ccc(C(=O)/C=C\N(C)C)cc1,active: 56.2 µM,
CC(C)(C)NC(=O)CC(CC(=O)O)c1ccccc1 (stereo not drawn),"inconclusive: 70.8 µM [inhibitor, partial curve, poor fit]",
CCOC(=O)C1=C(N)n2c(s/c(=C\c3ccco3)c2=O)=C(C(=O)OC(C)C)C1c1ccco1 (stereo not drawn),"inconclusive: 44.7 µM [inhibitor, partial curve]",
O=C(CSc1nnc(-c2ccc(Cl)cc2)n1Cc1ccco1)Nc1ccc2c(c1)OCCO2,inactive,
CN1CCN(c2ccnc(-c3cccnc3)n2)CC1,inactive,
Cc1csc2nc(-c3cccc(NC(=O)c4c(F)cccc4F)c3)cn12,inactive,
Cc1ccc(N=C2NN=C(c3cc(C)n(CC4CCCO4)c3C)CS2)cc1 (stereo not drawn),"inconclusive: 39.8 µM [inhibitor, partial curve, poor fit]",
Cc1oc(-c2ccccc2)nc1C(=O)N(C)Cc1ccc(C(N)=O)cc1,inactive,
Cc1ccc(C(C)C)cc1NC(=O)Nc1ccc([N+](=O)[O-])cc1,"inconclusive: 1.78 µM [inhibitor, partial curve, poor fit]",
Cc1cccc(CN2CCN(CC(=O)N3CCCC3)C2=O)c1,inactive,
COc1cc2c3nnc(-c4ccccc4)c-3cn(Cc3ccc(F)cc3)c2cc1OC,"inconclusive: 56.2 µM [inhibitor, partial curve, poor fit]",

SMILES,Potency,"activity change, negative = inhibition"
Cc1ccc2nc(C)c(C(=O)N3CCN(S(=O)(=O)c4cccc(F)c4)CC3)cc2c1,"inconclusive: 56.2 µM [inhibitor, partial curve, poor fit]",
COc1ccc(Nc2nccc3[nH]c(-c4cccc(OC(F)(F)F)c4)nc23)cc1OC,"inconclusive: 50.1 µM [inhibitor, partial curve, poor fit]",
CCN(CC)CCCn1c(-c2ccc(COc3ccc(Cl)cc3Cl)cc2)n[nH]c1=S,"inconclusive: 44.7 µM [inhibitor, partial curve, poor fit]",
CCCCC(=O)Nc1ccc(Cl)c2ncccc12,inactive,
COc1ccccc1-c1onc(C)c1C(=O)NCCC(c1ccccc1)c1ccccc1,"inconclusive: 39.8 µM [inhibitor, full curve, poor fit]",
Cc1ccc(Cc2c(-c3ccc(C)cc3)nc3ccc(Cl)cn23)cc1,"inconclusive: 1.58 µM [inhibitor, full curve, poor fit]",
CCSC1(SCC)N=C(N)C2(C#N)C(c3ccc(F)cc3)C12C#N (stereo not drawn),"inconclusive: 63.1 µM [inhibitor, partial curve, poor fit]",
CCOc1cc(C2/C(=C(\O)c3ccc(Cl)cc3)C(=O)C(=O)N2c2cc(C)on2)ccc1O (stereo not drawn),active: 15.8 µM,
O=C(c1nc2nc(-c3ccco3)cc(C(F)(F)F)n2n1)N1CCCCCC1,"inconclusive: 35.5 µM [inhibitor, partial curve, poor fit]",
COc1ccc(OC)c(NC(=O)COC(=O)CCNc2ccccc2OC)c1,"inconclusive: 70.8 µM [inhibitor, partial curve, poor fit]",
Cc1nccn1-c1ccc(C#N)cc1,inactive,
Cc1cc(Cl)ccc1S(=O)(=O)N1CCCC1c1nncn1Cc1ccncc1 (stereo not drawn),inactive,
CCC1CCCCN1C(=O)c1ccc(OC)c(OC2CCN(C(C)=O)CC2)c1 (stereo not drawn),inactive,
CCc1nnc(NC(=O)C2COc3ccccc3O2)s1 (stereo not drawn),"inconclusive: 112 µM [inhibitor, single point]",
CN(C)C(=O)CN1C(=O)CO[C@H](c2ccc(NC(=O)c3cccc(C#N)c3)cc2)[C@H]1CO,inactive,
COc1cc(/C=C/C(=O)OCCOc2ccc(Cl)cc2)ccc1O,active: 20 µM,
CCC(=O)c1c(N)cc(C)oc1=O,inactive,
CCCNC(=O)c1ccc2c(c1)S(=O)(=O)N=CN2CCC,inactive,
CCN1CCN(c2nc3ccccc3nc2C(C#N)S(=O)(=O)c2ccc(OC)cc2)CC1 (stereo not drawn),active: 17.8 µM,
CC(C)c1nc(C2Cc3ccccc3N2C(=O)NCc2ccco2)no1 (stereo not drawn),inactive,
COc1ccc(-c2ccnc3nc(C(C)C)nn23)cc1,inactive,
COc1ccccc1-c1nnc2sc(COc3ccccc3)nn12,inactive,
O=C(Nc1ccc(Cl)cc1)C1CCN(C(=O)c2ncn3c2COC(c2ccccc2)C3)CC1 (stereo not drawn),inactive,

# Record cards, from the list above:
# Cc1cc(Cl)ccc1S(=O)(=O)N1CCCC1c1nncn1Cc1ccncc1 (stereo not drawn) in the list: Potency: inactive
# COc1cc(/C=C/C(=O)OCCOc2ccc(Cl)cc2)ccc1O in the list: Potency: active: 20 µM

# (next part)

SMILES,Potency,"activity change, negative = inhibition"
CN(CC(=O)Nc1ccc(F)cc1)C(=O)COC(=O)c1cccc(N(C)C)c1,inactive,
COc1ccc(-c2cc(CNS(=O)(=O)c3ccc(NC(C)=O)cc3)on2)cc1,inactive,
Cc1cc(C(=O)N2CCC3(CC(=O)Nc4ccccc4N3)C2)ccc1Cl (stereo not drawn),,inconclusive: -32% [inhibitor]
CC(NC(=O)Cc1c[nH]c2ccccc12)c1cc2ccccc2o1 (stereo not drawn),"inconclusive: 50.1 µM [inhibitor, partial curve, poor fit]",
O=c1cc(-c2cccnc2)oc2c(-c3ccccc3Oc3ccccc3)nccc12,"inconclusive: 112 µM [inhibitor, partial curve, poor fit]",
O=C(N[C@H](CO)c1ccccc1)C1CCC(CNS(=O)(=O)c2ccc(F)cc2)CC1 (stereo partly drawn),"inconclusive: 112 µM [inhibitor, single point]",
COCCN1C(=O)c2cccn2CC1CNC(=O)c1cccc(OC)c1 (stereo not drawn),inactive,
CCn1c(CSCc2ccc(C)cc2)nnc1SCC(=O)N1CCN(c2ccccc2)CC1,inactive,
Cc1cccc(NS(=O)(=O)c2ccc3c(c2)CCCN3C(=O)C2CCC2)c1C,inactive,
CC(C)NC(=S)N/N=C/c1ccccc1[N+](=O)[O-],inactive,
Cn1c2c(c3ccccc31)CN(C(=O)c1ccccc1)CC2,"inconclusive: 39.8 µM [inhibitor, partial curve]",
O=C(CCN1C(=O)S/C(=C/c2ccc(F)cc2)C1=O)Nc1ccc(O)c(C(=O)O)c1,"inconclusive: 25.1 µM [inhibitor, partial curve, poor fit]",
COc1ccc(-c2nc3ccccc3o2)cc1NC(=O)c1ccc(-c2cccc(Cl)c2C)o1,"inconclusive: 5.62 µM [inhibitor, full curve, poor fit]",
CC(=O)N1Cc2ccccc2CC2(CCCN2Cc2ccccn2)C1 (stereo not drawn),"inconclusive: 3.16 µM [inhibitor, single point]",
Cc1cccc(C)c1N=C1NN=C(c2ccc3c(c2)CCN3S(C)(=O)=O)CS1,"inconclusive: 35.5 µM [inhibitor, partial curve, poor fit]",
COc1ccc(S(=O)(=O)N(C)C[C@H]2Oc3ccc(NC(=O)Nc4ccc(C(F)(F)F)cc4)cc3C(=O)N([C@H](C)CO)C[C@@H]2C)cc1,"inconclusive: 56.2 µM [inhibitor, partial curve, poor fit]",
O=C(c1ccc(Cn2cnnn2)cc1)N1CCOc2ccc(C(O)C3CCCCC3)cc2C1 (stereo not drawn),"inconclusive: 100 µM [inhibitor, single point]",
O=c1cc(-c2ccccc2)nc2c(-c3ccccc3)c(C(F)(F)F)[nH]n12,"inconclusive: 25.1 µM [inhibitor, partial curve, poor fit]",
Cc1ccc(CNC(=O)C2CCCN(Cc3nc(-c4cccc(C)c4)oc3C)C2)cc1 (stereo not drawn),"inconclusive: 178 µM [inhibitor, partial curve, poor fit]",
CC(=O)c1ccc(OCc2cn(CC(=O)c3ccc(O)cc3)nn2)c(C)c1,"inconclusive: 112 µM [inhibitor, single point]",
CC1(c2ccccc2)N(Cc2cccnc2)C(=O)OC12CCN(Cc1ccc(F)cc1)CC2 (stereo not drawn),inactive,
Cn1c(=O)c2c(nc(SCC(=O)O)n2Cc2ccccc2)n(C)c1=O,"inconclusive: 35.5 µM [inhibitor, single point]",

# Pulled one by one from the list above:
SMILES,Potency,"activity change, negative = inhibition"
COc1ccc(-c2nc3ccccc3o2)cc1NC(=O)c1ccc(-c2cccc(Cl)c2C)o1,"inconclusive: 5.62 µM [inhibitor, full curve, poor fit]",
Cc1cccc(NS(=O)(=O)c2ccc3c(c2)CCCN3C(=O)C2CCC2)c1C,inactive,
CC(=O)c1ccc(OCc2cn(CC(=O)c3ccc(O)cc3)nn2)c(C)c1,"inconclusive: 112 µM [inhibitor, single point]",
COCCN1C(=O)c2cccn2CC1CNC(=O)c1cccc(OC)c1 (stereo not drawn),inactive,
